Assay results from PMC10163288.
Some of the results follow.

B1: il2ra_site2_2erj_sap_30_mot_64bd02d26d05ce9f1a62b616cea0b888_0001_af2_000000029_0001_36_49_H_._HHH_b1_06320_af2_0001_0000700026_0000001_0_0001 (protein)
chain: SSSSSEASERVAELLAEAIELAKEGNPEEAEKLLEEAREIAEKANNEALRRYVEYARRDVSSSSS
B2: il2ra_site2_2erj_normal_mot_HHH_b1_07975_000000047_0001_41_57_H_._HHH_b1_02271_0001_0000200003_0000001_0_af2pred_0001_af2pred (protein)
chain: SSSSDESREVARRSVEELLERGNPIRALAEVRLLREFAERSNDPELRELTEELQELVREGSSSSS
B3: il2ra_site1_3nfp_sap_10_mot_HHH_b2_01680_af2_000000278_0001_1_15_H_._3d8f192e90fe1e6e5fcf0d306f82013b_0001_0001_0000400025_0000001_0_0001 (protein)
chain: DLEENFKEAAEQIAEIAGVPSVEVENNNGTLEVTFEGDEQDARVASKLVEEAARILGVEVSVEVR
B4: il2ra_site1_3nfp_normal_mot_HHH_b2_07277_000000087_0001_39_56_H_._HHH_b2_01570_0001_0000300016_0000001_0 (protein)
chain: SSSSSDEEEFRRRVRELLEEAKEVPDPREAIEIFEEALKLAARLGDPELDKLVREFVKELSSSSS
B5: il2ra_site1_1z92_normal_mot_HHH_b2_07758_000000290_0001_1_17_H_._HHH_b2_04201_af2_0001_0000300026_0000001_0 (protein)
chain: SSSSDRLERQAKRIVEILVEIAGLDEEQQEKLEELAEELLERGVDFLELLKELNRLAAELESSSS
B6: il2ra_site1_2b5i_sap_25_mot_203a44625a3a2ba431098544127a80a6_0001_af2_000000085_0001_36_50_H_._3cb01cd59277439e4f5c2b5f7f6b6153_0001_1_af2_0001_0000100007_00000 … (protein)
chain: SSSSDDEVVEIAAEAFSRASRLFLNGNKEEAREVLEEALRLLRELGDPELVEQLEHFLEKASSSS
B7: il2ra_site1_2b5i_normal_mot_HHH_b2_04910_000000118_0001_1_19_H_._HHH_b1_00447_0001_0000100005_0000001_0_af2pred_dldesign_0_af2pred (protein)
chain: SSSSGSPECVKALELFLEANKLKQAGKEEEAKELLEKALELAKKGKCTSLEKMIESALKSLSSSS
B8: il2ra_site2_3nfp_sap_14_mot_HHH_b1_04720_af2_000000144_0001_22_38_H_._9ef7f51dc382628e5cb330fd54d9e629_0001_0001_0000400020_0000001_1_0001 (protein)
chain: SSSSSDVEELLEQVEELLKEGDKYQATHVLMEASELAARLGDPELVRAVLELFKLLQEASSSSSS
B9: il2ra_site1_1z92_sap_15_mot_a6da520ff4a02840130205282d0b8d49_0001_af2_000000028_0001_54_65_H_._e060d0886229932d1ce4e0f52036649a_0001_0001_0000200004_0000001_0_0 … (protein)
chain: SSSSSSSEVEEIVREIVEEFGLSEEDKEVLERDAERSLELGFSPKSIKMALERFAELLLSSSSSS
B10: il2ra_site2_3nfp_normal_mot_HHH_b1_05437_000000005_0001_40_57_H_._HHH_b2_08333_0001_0000200013_0000001_0 (protein)
chain: SSSSSEEEEEVRRLIERVEELIKEGNPEEARELLQRATHIAYEAGNSELFFLLAELLYLLASSSS
B11: il2ra_site2_3nfp_sap_20_mot_HHH_b2_06150_000000217_0001_39_53_H_._HHH_b2_03666_af2_0001_0000400026_0000001_0_0001 (protein)
chain: SKTVTIEVEDEEYARRIAERIFVIETETEGSSVTLHLRARNEEAARYVEIAAKLQFPNAEVEIES
B12: il2ra_site1_1z92_sap_27_mot_HHH_b2_02540_000000162_0001_1_16_H_._HHH_b1_06872_0001_0000700033_0000001_0_0001_af2pred_0001_af2pred_1 (protein)
chain: SLEELLEELLEELGVPPEDIKLVKRDLEQAKKLFPPERALRALLAALRVAGDPEAAKAVELVLRH
B13: il2ra_site1_3nfp_sap_14_mot_HHH_b1_02124_000000258_0001_1_20_H_._HHH_b2_08053_0001_0000200008_0000001_0_0001 (protein)
chain: SKILVRFLRDLEKVLGDPEEAVRKVVKDFEKVLNVPPEEAREALKRMLKSVDEELAEEVEELLEK
B14: il2ra_site2_3nfp_normal_mot_HHH_b1_05437_000000005_0001_40_57_H_._HHH_b2_03978_0001_0000200010_0000001_0 (protein)
chain: SSSSSEVEEEVRRILEEAEELYKQGDEEKVRRLLAEATHLAYENRDFEAFALVAEVLYRLASSSS
B15: il2ra_site1_1z92_sap_14_mot_3afbd42359c492d9a5ba12d7e5b15de5_0001_000000167_0001_17_33_H_._HHH_b2_02962_0001_0000500018_0000001_0_0001_af2pred_0001_af2pred_1_sw … (protein)
chain: SLERDAENALKYAPTPRALRKMLEEALKLTGDPEERRKFIEIVEKIARELGNEELEEAAEEALRK
B16: il2ra_site2_3nfp_sap_24_mot_HHH_b1_03777_000000157_0001_42_57_H_._HHH_b1_00199_0001_0000100005_0000001_0_0001 (protein)
chain: SSSSDEVEELLKEIEELLKEGDLYEVAQLLVEATELALELGDEELAREILRLFKLLQERSESSSS
B17: il2ra_site2_2erj_normal_mot_HHH_b1_05907_000000149_0001_1_15_H_._HHH_b1_08271_0001_0000700021_0000001_0_af2pred_0001_af2pred (protein)
chain: SSSSDREEEVQQLAILVVRLKEEGNPEEAREALEEAIELARELGDEERAAFLEVALIAIEQSSSS
B18: il2ra_site2_3nfp_normal_mot_HHH_b1_03516_af2_000000045_0001_38_52_H_._HHH_b1_06009_0001_0000400028_0000001_0 (protein)
chain: SSSSHREDLIRALLILAKRLVEELEDPEERRELERLIEELEREGDPHIAIRLAELLNEINSSSSS

Biological target: il2ra, P01589
Experiment: yeast display titration

Apparent Kd, inactive:
B1 no binding seen
B2 no binding seen
B3 no binding seen
B4 no binding seen
B5 no binding seen
B6 no binding seen
B7 no binding seen
B8 no binding seen
B9 no binding seen
B10 no binding seen
B11 no binding seen
B12 no binding seen
B13 no binding seen
B14 no binding seen
B15 no binding seen
B16 no binding seen
B17 no binding seen
B18 no binding seen

2 records drawn at random from the list so far:
Apparent Kd, inactive:
B3 no binding seen
B10 no binding seen
